Binding data for 7 molecules are collected here from article PMC10951710.

This assay has as its target T1, MKK2-TurboID-Hisx8 fusion protein (mitogen-activated protein kinase kinase 2 fused to TurboID) (Arabidopsis thaliana) (UniProt Q9S7U9).
T1 sequence: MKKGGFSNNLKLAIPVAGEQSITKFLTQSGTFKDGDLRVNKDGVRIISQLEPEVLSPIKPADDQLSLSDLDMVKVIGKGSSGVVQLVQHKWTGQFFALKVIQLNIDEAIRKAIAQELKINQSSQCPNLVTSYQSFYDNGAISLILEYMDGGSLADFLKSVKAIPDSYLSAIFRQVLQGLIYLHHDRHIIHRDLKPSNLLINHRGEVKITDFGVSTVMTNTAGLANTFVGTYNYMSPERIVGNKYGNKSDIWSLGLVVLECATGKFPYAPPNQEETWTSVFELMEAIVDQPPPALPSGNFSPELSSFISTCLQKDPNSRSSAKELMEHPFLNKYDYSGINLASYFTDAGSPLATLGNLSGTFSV
Put plainly: proximity labelling; in planta TurboID labelling in MKK1-ID or MKK2-ID transgenic Arabidopsis against TurboID-only (ID) plants; 150 uM biotin and 5 uM estradiol in the medium, 5 min wind of 4 m/sec; denaturing extraction, streptavidin enrichment of biotinylproteins and biotinylpeptides, LC-MS/MS, iBAQ quantitation; hits at log2-ratio >= 1.58 and BH-FDR <= 0.05.

Results are given in words; binding and its absence hold for the method and conditions named. Binding seen in cells or lysates may run through a third protein. Here binding means that the protein was enriched with, or labelled near, the bait; the list need not be complete. Where a sequence is shown, tags or fusion partners need not be part of it.

B1: D-lactate dehydrogenase (DUF668) (PSI3) (protein, UniProt P0DO24 1-649)
chain: MGSFCSKSLGINFGSEYSGSSVADDGREPDFGHSQPNGQTSLIVPGMRQLMVKDVKEQNQLKDVFSFREREAEDNFYDGIPTYTMAPSQKIRSAKSTQTAVSKVTEASKLLGKAGLGRAKDVLDTLGSSMTDLSSGGFTSGVATKGNELGILAFEVANTIVKSSNLIESLSKRNIEHLKGTILYSEGVQNLVSNDFDELLRLVAADKRQELQVFSGEVVRFGNRSKDFQWHNLQRYFDRISKELTPQRQLKEDAVLVVDQLMVLVQYTAELYQELQVLYRLEKDYEQKRREEENSANSSKGDGLAILKTELKAQRKVVKSLKKKSLWSRGFEEVMEKLVDIVHFLLLEIHNIFGGADDQPSKKGAAEYDKRLGPAGLALHYANIIVQIDTLVARASSITSNARDSLYQSLPPGIKLALRSKIKSFNVDKELSVTQIKDEMERTLHWLVPVAGNTTKAHHGFGWVGEWANTGTDFTSKPSGGDILRIETLYHASKEKTEIYILGQIIWLQHLVTKAKSDARGGPRLSSIKSPLDTTNQQLISEPLSVPIVTDEEQKMLQEASKRKRTPCVSKSQDFDSEYSRARKCDPLSKSSEYFRGVRRSKSAAVKRYSSGFPLLDFAIDKEKVLDVIDRVDVPRDYKALLKEGSLSF
On to B1, for which the binding entry is on record as “binds”.

B2: Peroxin 22 (PEX22) (protein, UniProt Q9LSX7 1-283)
chain: MAESSSPSPTEEIVRLIKRLSAYVAFKMSSLFSTTSIRNLDSRSIGAIAGLAIAVIFTWRAIRTPGEQRQRRQPKRRIHNAETSSAAAAASQSNLASSVAPEVSSPREDNAVQDVVDQFFQPVKPTLGQIVRQKLSEGRKVTCRLLGVILEETSPEELQKQATVRSSVLEVLLEITKYSDLYLMERVLDDESEAKVLQALENAGVFTSGGLVKDKVLFCSTEIGRTSFVRQLEPDWHIDTNPEISTQLARFIKYQLHVATVKPERTAPNVFTSQSIEQFFGSV
For B2, the binding entry is “binds”.

B3: A member of the Arabidopsis LIM proteins (WLIM1) (protein, UniProt Q94JX5 1-190)
chain: MAFAGTTQKCMACDKTVYLVDKLTADNRVYHKACFRCHHCKGTLKLSNYNSFEGVLYCRPHFDQNFKRTGSLEKSFEGTPKIGKPDRPLEGERPAGTKVSNMFGGTREKCVGCDKTVYPIEKVSVNGTLYHKSCFKCTHGGCTISPSNYIAHEGKLYCKHHHIQLIKEKGNLSQLEGGGENAAKDKVVAA
As to B3, the binding entry is “binds”.

B4: GRAM domain family protein (GEM) (protein, UniProt Q8S8F8 1-299)
chain: MEPPKGDTVVKTEVPVKDPSLSVVDSKTKGVEDANTEIALSDEVEIETKGSDSTPVKAPSRTSSGSKKSVHWSPELVSGSQEPDQKAASSSSAGSNPYIARSPAETSDASLKDTMETVKGVLGRWGKRVAEAAKKTESLAGNTWQHLRTAPSFADAAMGRIAQSTKVFAEGGYEKIFRQTFETDPEEQLLNSFACYLSTSAGPVMGVLYISSAKLAYCSDNPLSYKNGDQTEWSYYKVVIPLHQLKAVNPSASIVNPAEKYIQVISVDNHEFWFMGFLNYDGAVTSLQDSLQAGALRSV
With B4, the binding entry is “binds”.

B5: Splicing factor, putative (protein, UniProt Q9FMF9 1-1269)
chain: MADLDPEIAKTQEERRKMEADLASLTSLTFDRDLYGGNDRASYSTSIAPNEEDDANLDTTGSLVAQRLASYTAPRSILNDVARPHNEDDDVGFKPRQSIAEREGEYRNRRLNRVLSPDRVDAFAMGDKTPDASVRTYTDHMRETALQREKEETMRLIAKKKKEEEEAAAKHQKDSAPPPPASSSSSSSKRRHRWDLPEEDGAAAKKAKAASSDWDLPDAAPGIGRWDAPTPGRVSDATPSAGRRNRWDETPTPGRVTDSDATPGGGVTPGATPSGVTWDGLATPTPKRQRSRWDETPATMGSATPMGGVTPGAAYTPGVTPIGGIDMATPTPGQLIFRGPMTPEQLNMQRWEKDIEERNRPLSDEELDAMFPKDGYKVLDPPATYVPIRTPARKLQQTPTPMATPGYVIPEENRGQQYDVPPEVPGGLPFMKPEDYQYFGSLLNEENEEELSPEEQKERKIMKLLLKVKNGTPPQRKTALRQLTDKARELGAGPLFNKILPLLMQPTLEDQERHLLVKVIDRILYKLDEMVRPYVHKILVVIEPLLIDEDYYARVEGREIISNLSKAAGLASMIAAMRPDIDNIDEYVRNTTARAFSVVASALGIPALLPFLKAVCQSKRSWQARHTGIKIVQQIAILIGCAVLPHLRSLVEIIEHGLSDENQKVRTITALSLAALAEAAAPYGIESFDSVLKPLWKGIRSHRGKVLAAFLKAIGFIIPLMDAIYASYYTKEVMVILIREFQSPDEEMKKIVLKVVKQCVSTEGVEPEYIRSDILPEFFRNFWTRKMALERRNYKQLVETTVEVANKVGVADIVGRVVEDLKDESEQYRRMVMETIDKVVTNLGASDIDARLEELLIDGILYAFQEQTSDDANVMLNGFGAVVNALGQRVKPYLPQICGTIKWRLNNKSAKVRQQAADLISRIAVVMKQCGEEQLMGHLGVVLYEYLGEEYPEVLGSILGALKAIVNVIGMTKMTPPIKDLLPRLTPILKNRHEKVQENCIDLVGRIADRGAEFVPAREWMRICFELLEMLKAHKKGIRRATVNTFGYIAKAIGPQDVLATLLNNLKVQERQNRVCTTVAIAIVAETCSPFTVLPALMNEYRVPELNVQNGVLKSLSFLFEYIGEMGKDYIYAVTPLLEDALMDRDLVHRQTAASAVKHMALGVAGLGCEDALVHLLNFIWPNIFETSPHVINAVMEAIEGMRVALGAAVILNYCLQGLFHPARKVREVYWKIYNSLYIGAQDTLVAAYPVLEDEQNNVYSRPELTMFV
B5: the binding entry is on record as “binds”.

B6: RNA helicase 40 (RH40) (protein, UniProt Q9SQV1 1-1088)
chain: MATTEDTPASAGPRYAPEDPTLPQPWKGLIDGSTGILYYWNPETNVTQYERPSAPPPHSATTPKLAQIPVPSSGQGHQAQHEQAKPVGHVSQQHGFQQQPQQFPSQHVRPQMMQQHPAQQMPQQSGQQFPQQQSQSMVPHPHGHPSVQTYQPTTQQQQQGMQNQHSQMPQQLSHQYAHSQQHYMGFRPHMQTQGLQNSHQTPQGGPHGQQFPSQQEYNSLAPKREGDEFHGGKKTGFSQPHLPNSERSPSQNTHFEANAASQKTNANLAMAQKCNGPQANAAVTQFQQPGANLIHQQLGPRAPNQMDQTMLHQKSHVSPFQSNNTYENNLQSRPGNDSYVNMRMEVPVRGAQPLHPAAMPKDIRISGGPPTNADPAMGQTGHGTYGHAGPAFPNKSLVRPHFVTSPDVPHLSPVEIYRKQHEVTTTGENIPAPYITFESSGLPPEILRELLSAGFPSPTPIQAQTWPIALQSRDIVAIAKTGSGKTLGYLIPAFILLRHCRNDSRNGPTVLILAPTRELATQIQDEALRFGRSSRISCTCLYGGAPKGPQLKELERGADIVVATPGRLNDILEMKMIDFQQVSLLVLDEADRMLDMGFEPQIRKIVNEIPPRRQTLMYTATWPKEVRKIASDLLVNPVQVNIGRVDELAANKAITQYVEVVPQMEKERRLEQILRSQERGSKVIIFCSTKRLCDHLARSVGRHFGAVVIHGDKTQGERDWVLNQFRSGKSCVLIATDVAARGLDIKDIRVVINYDFPTGVEDYVHRIGRTGRAGATGVAFTFFTEQDWKYAPDLIKVLEGANQQVPPQVRDIAMRGGGGGGPGYSQDRRGMVNRFDSGGGGTRWDSGGGFGGRGGGFSGREGGFGGREGGFGGREGGFGGRGGRFGMRDDSFGRGGNRGRGFTGPDAGHMNVGGRGGFGRFGNNNNMESRGFGRGSGRGFGRGVGRFDNRRGRSRSRSPDLVRPRRRSSSYSRSRSRSGSYSRSRSRSRSWSRSRSRSPRHSRDRGGHNRSRSYSRSPSPVYERRDRAPRVSGFDIKPPVESVVNLDMNAAAAIENVVPTSLSERQGNGVVESEVEAALVRPVVDEEP
As for B6, the binding entry is reported as “binds”.

B7: D111/G-patch domain-containing protein (DRT111) (protein, UniProt P42698 1-387)
chain: MLGGLYGDLPPPTDDEKPSGNSSSVWSSSTKMAPPTLRKPPAFAPPQTILRPLNKPKPIVSAPYKPPPPSNSSQSVLIPANESAPSHQPALVGVTSSVIEEYDPARPNDYEEYKREKKRKATEAEMKREMDKRRQEDEERDKREREEREKERERDNSDPSRLNISGEEAWKRRAAMSGGGSGGKGRSSSPPGNVDGFSIGKSETSGLGVGAGGQMTAAQRMMAKMGWKQGQGLGKSEQGITTPLMAKKTDRRAGVIVNASENKSSSAEKKVVKSVNINGEPTRVLLLRNMVGPGQVDDELEDEVGGECGKYGTVTRVLIFEITEPNFPVHEAVRIFVQFSRPEETTKALVDLDGRYFGGRTVRATFYDEEKFSKNELAPVPGEIPGY
Turning to B7, the binding entry was “binds”.
